Measured values reported in US12697313B2, “Methods of treating anemia using formoterol or a pharmaceutically acceptable salt thereof” (Dana-Farber Cancer Institute, Inc., priority 2022, dated 2026).
Structures can show the parent of a compound that is named as a salt.

Tested on: primary human HSPCs
Test: Erythroid differentiation liquid culture of primary human HSPCs, flow cytometry
Assay type: cell-based
Conditions: 1/5 μM, n=5 healthy donors
Procedure: To address this, primary human HSPCs were treated with varying doses of FF (Selleckchem). […] To ascertain if FF administration plays a role further upstream in the erythroid differentiation pathway, methylcellulose colony-formation assays were performed.
CD34+ primary human hematopoietic stem and progenitor cells (HSPCs) were obtained from Fred-Hutchinson Cancer Research center, Seattle, USA and cultured, as previously described. Formoterol fumarate was purchased from Selleckchem (#S2020) and Sigma (#F9552), dissolved (in DMSO) and stored as per manufacturer's instructions, and used at the final working concentrations as indicated.

COc1ccc(C[C@@H](C)NC[C@H](O)c2ccc(O)c(NC=O)c2)cc1 [Arf, N-[2-hydroxy-5-[(1R)-1-hydroxy-2-[[(1R)-2-(4-methoxyphenyl)-1-methylethyl]amino]ethyl]phenyl]-formamide, (2R,3R)-2,3-dihydroxybutanedioate (1:1 salt)]
erythroid differentiation (CD235a) (FIG. 2): induces erythroid differentiation (CD235a) dose-dependently | megakaryocytic differentiation (CD41/61) (FIG. 12): does not influence megakaryocytic differentiation (CD41/61)
